Results are given in words; binding and its absence hold for the method and conditions named. Binding seen in cells or lysates may run through a third protein. Here binding means that the protein was enriched with, or labelled near, the bait; the list need not be complete. Sequences can lack the tags named with a protein.
Molecular target: T1, GFP-Sec14L6 (human) (UniProt B5MCN3)
T1 sequence: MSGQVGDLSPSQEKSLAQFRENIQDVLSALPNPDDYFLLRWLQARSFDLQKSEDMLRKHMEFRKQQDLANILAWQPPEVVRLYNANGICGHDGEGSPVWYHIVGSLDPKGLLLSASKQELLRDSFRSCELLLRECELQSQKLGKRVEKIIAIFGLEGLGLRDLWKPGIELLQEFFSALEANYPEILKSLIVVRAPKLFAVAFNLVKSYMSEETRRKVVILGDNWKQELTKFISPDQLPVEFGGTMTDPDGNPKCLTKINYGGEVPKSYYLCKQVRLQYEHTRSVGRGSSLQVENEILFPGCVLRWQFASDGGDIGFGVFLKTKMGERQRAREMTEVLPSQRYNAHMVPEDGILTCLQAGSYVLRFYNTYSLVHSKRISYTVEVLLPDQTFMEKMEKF
Assay: affinity purification with mass spectrometry

- binding: binds
Substance: PGRMC1 (endogenous, HEK293) (from UniProt O00264-1 1-195)
